Assay results published in PMC5206633.
No constants are given. Whether binding was seen depends on the method and setting. Binding seen in cells or lysates may run through a third protein. Some results given as binding are weak or reduced against the parent protein; the word gives no strength.

Protein sequences, listed by entry. Tags and fused reporters are not part of them. Lines headed by an entry give the natural chain unless they say otherwise; changes in a name come on top.
UniProt P06748, whole entry: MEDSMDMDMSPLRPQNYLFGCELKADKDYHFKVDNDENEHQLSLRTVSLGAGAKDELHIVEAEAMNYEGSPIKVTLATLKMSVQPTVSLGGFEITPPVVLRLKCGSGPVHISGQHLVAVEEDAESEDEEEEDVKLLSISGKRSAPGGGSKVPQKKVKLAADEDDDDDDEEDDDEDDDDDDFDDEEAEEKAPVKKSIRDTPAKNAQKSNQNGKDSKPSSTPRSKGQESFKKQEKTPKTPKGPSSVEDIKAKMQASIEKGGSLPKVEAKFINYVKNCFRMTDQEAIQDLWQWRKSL

How the values were obtained:
[1] = target: GST-NPM1 fusion protein (full length, 1–294) (not stated (the discussion speaks of 'NPM1 of Vero E6 cells')) (UniProt P06748); experiment: pull-down; GST or GST-NPM1 on glutathione beads incubated with full-length and deletion mutants of GFP-tagged N protein; immunoblot against GFP; the source of the GFP proteins is not told (the methods tell of lysate of transfected HEK293T cells for Myc-N); only the target purified
[2] = target: 3×Flag-NPM1 (K263R) (not stated (the discussion speaks of 'NPM1 of Vero E6 cells')) (UniProt P06748); experiment: co-IP; HEK293T cells co-transfected, whole-cell lysates at 48 hpt in IP lysis buffer; immunoprecipitated with anti-Myc or anti-Flag mAb on protein A/G beads for 6–8 h; immunoblot
[3] = target: 3×Flag-NPM1 (K230R) (not stated (the discussion speaks of 'NPM1 of Vero E6 cells')) (UniProt P06748); experiment: as above
[4] = target: 3×Flag-NPM1 (nucleophosmin) (not stated (the discussion speaks of 'NPM1 of Vero E6 cells')) (UniProt P06748); experiment: as above
[5] = target: 3×Flag-NPM1 (T199A) (not stated (the discussion speaks of 'NPM1 of Vero E6 cells')) (UniProt P06748); experiment: as above
[6] = target: GST-NPM1 fusion protein (full length, 1–294) (not stated (the discussion speaks of 'NPM1 of Vero E6 cells')) (UniProt P06748); experiment: pull-down; GST, GST-NPM1 or GST-NPM1 deletion mutants from E. coli on glutathione beads, blocked with 5% BSA; incubated 6 h at 4 °C in TIF buffer (20 mM Tris-HCl pH 8.0, 150 mM NaCl, 0.1% NP-40) with Myc-N from lysates of transfected HEK293T cells; immunoblot with anti-Myc; only the target purified

“GFP-tagged full-length PEDV N protein (from UniProt Q07499 1-441)” was tested, and the binding [1] was “binds”.

“Myc-tagged PEDV nucleocapsid (N) protein (from UniProt Q07499 1-441)” was tested, and the binding [2] was “binds”, the binding [3] was “binds” and the binding [4] was “binds”. The binding [5] was “binds” and the binding [6] was “binds”.

With “GFP-NR2 (aa 148–294 of PEDV N) (from UniProt Q07499 148-294) (domain or fragment)” the binding [1] was “binds”.
